Source: paper PMC6989212
No constants are given. Whether binding was seen depends on the method and setting. For some assays here: In cells and extracts the contact can be indirect. Some binding calls cover weakened binding; strength is not graded here. For some assays here: Where a sequence is shown, tags or fusion partners need not be part of it.

Sequences of proteins named here, by UniProt entry; tags and fusion partners are left off.
UniProt P32568: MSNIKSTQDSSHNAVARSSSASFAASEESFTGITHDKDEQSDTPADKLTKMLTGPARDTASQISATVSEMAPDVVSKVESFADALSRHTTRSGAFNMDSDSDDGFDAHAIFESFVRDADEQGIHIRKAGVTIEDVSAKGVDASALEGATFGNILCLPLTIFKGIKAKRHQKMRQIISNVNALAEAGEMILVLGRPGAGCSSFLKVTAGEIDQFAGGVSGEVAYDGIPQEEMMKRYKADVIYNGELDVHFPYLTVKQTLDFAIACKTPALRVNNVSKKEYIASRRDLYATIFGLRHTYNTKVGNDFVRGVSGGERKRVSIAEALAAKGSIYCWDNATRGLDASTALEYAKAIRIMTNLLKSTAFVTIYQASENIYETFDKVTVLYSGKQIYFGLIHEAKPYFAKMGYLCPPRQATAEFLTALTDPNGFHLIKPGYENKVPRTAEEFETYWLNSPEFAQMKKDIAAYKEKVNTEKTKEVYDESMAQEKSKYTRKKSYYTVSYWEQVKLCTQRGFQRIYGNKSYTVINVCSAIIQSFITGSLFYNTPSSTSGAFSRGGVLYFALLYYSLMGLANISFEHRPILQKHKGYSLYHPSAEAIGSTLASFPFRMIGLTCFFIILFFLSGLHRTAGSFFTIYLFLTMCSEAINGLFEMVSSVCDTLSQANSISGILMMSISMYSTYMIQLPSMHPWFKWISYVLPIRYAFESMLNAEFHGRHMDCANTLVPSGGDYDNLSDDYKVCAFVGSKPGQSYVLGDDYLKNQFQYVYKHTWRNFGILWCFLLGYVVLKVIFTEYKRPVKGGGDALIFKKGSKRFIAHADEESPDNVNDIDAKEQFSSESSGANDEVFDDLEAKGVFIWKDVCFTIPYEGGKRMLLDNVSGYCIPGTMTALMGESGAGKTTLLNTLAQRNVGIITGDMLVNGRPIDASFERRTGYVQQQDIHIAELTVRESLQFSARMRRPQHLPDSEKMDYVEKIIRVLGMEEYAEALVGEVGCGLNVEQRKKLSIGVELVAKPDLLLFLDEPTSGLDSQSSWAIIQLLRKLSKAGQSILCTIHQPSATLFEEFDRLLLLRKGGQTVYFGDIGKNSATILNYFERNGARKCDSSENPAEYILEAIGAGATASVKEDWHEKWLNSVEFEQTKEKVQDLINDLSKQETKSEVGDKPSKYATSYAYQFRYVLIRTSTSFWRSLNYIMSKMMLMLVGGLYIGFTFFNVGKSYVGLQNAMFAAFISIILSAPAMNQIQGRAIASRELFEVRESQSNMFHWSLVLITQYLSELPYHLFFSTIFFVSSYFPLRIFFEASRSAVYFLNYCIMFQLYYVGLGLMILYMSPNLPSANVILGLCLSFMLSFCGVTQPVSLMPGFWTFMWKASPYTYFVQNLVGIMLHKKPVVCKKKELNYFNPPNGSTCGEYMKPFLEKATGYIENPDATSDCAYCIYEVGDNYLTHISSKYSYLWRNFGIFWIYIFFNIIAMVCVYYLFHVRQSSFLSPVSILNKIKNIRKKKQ
UniProt P33302: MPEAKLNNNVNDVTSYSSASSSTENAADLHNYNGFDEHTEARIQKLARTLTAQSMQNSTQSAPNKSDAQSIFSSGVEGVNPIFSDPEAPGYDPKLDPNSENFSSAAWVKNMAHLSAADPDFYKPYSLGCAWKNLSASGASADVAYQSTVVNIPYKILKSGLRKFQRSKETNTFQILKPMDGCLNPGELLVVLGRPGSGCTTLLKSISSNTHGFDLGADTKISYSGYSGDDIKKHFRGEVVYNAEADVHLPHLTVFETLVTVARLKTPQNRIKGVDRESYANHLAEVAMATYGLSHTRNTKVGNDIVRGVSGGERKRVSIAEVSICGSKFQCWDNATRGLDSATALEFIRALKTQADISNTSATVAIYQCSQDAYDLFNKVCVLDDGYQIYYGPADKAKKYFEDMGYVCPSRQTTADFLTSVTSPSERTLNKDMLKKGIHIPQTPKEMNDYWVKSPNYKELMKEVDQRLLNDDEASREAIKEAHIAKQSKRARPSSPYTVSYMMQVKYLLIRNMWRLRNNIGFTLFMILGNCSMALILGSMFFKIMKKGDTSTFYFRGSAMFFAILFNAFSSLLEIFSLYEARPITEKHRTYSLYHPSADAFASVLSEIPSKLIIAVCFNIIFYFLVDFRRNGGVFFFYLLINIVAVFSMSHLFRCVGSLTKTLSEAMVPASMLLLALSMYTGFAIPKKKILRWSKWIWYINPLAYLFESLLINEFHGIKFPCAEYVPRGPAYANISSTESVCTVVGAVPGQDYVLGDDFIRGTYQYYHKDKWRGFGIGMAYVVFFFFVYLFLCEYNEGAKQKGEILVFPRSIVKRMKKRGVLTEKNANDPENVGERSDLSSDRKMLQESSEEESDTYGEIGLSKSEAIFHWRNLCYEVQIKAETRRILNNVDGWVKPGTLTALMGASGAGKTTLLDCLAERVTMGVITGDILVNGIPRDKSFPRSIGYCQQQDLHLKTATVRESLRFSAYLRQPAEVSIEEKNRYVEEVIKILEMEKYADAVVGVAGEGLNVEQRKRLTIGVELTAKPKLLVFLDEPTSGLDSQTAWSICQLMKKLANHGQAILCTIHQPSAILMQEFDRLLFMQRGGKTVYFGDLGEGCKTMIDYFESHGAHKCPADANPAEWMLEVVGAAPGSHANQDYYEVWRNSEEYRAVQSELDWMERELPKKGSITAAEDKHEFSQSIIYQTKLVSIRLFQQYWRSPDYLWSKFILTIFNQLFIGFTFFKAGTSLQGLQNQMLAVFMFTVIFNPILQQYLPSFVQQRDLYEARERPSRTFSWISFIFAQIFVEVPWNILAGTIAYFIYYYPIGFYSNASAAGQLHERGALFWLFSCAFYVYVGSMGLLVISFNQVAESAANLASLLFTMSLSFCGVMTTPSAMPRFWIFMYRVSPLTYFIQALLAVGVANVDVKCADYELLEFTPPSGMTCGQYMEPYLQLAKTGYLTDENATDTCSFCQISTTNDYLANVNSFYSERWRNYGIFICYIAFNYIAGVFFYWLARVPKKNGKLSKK

T1: Yor1 (PCA strains, mDHFR fragment fusions) (S. cerevisiae), P53049
T1 chain: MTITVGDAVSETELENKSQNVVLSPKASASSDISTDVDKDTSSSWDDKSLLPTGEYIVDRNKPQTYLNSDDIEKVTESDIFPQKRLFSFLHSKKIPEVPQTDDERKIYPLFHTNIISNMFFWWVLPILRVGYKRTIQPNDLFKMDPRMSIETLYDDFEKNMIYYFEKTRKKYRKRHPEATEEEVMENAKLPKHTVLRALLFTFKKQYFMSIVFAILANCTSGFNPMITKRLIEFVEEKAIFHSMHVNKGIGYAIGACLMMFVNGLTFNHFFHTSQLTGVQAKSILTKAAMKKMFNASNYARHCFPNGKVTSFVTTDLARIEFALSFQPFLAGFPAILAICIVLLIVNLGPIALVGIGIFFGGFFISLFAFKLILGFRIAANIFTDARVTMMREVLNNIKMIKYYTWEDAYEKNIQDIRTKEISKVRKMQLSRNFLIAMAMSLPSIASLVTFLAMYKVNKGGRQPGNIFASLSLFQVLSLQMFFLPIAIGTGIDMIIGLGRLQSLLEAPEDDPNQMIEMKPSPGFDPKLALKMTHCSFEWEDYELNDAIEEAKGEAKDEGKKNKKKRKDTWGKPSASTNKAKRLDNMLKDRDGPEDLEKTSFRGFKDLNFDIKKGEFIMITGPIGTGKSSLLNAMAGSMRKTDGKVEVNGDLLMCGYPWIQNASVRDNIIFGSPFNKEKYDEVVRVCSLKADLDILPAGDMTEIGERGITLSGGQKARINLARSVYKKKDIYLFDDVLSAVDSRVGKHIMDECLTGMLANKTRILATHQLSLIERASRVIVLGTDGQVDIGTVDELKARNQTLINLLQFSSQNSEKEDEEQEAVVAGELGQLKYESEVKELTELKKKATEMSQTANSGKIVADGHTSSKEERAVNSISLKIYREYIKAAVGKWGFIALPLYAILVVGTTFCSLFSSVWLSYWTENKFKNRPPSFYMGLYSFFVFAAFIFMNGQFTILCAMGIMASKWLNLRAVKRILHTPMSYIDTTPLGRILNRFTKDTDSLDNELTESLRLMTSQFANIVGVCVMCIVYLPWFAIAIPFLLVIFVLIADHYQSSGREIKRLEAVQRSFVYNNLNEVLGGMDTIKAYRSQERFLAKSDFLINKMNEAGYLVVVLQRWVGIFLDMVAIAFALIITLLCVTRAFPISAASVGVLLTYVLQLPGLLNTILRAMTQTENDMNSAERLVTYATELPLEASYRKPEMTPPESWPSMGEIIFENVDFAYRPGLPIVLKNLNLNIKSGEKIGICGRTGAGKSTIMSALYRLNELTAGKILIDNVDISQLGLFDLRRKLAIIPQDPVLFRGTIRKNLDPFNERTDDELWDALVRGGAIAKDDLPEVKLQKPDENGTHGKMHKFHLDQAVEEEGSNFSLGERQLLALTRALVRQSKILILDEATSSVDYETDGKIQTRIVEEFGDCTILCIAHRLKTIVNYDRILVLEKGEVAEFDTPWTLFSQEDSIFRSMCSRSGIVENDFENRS


Key:
[1] = target: Snq2 (iMYTH bait) (S. cerevisiae) (UniProt P32568); experiment: two-hybrid; membrane yeast two-hybrid (MYTH, split ubiquitin); genomically Cub-LexA-VP16-tagged baits, PDR5-NubG prey plasmid; growth on solid medium for 5 days on SD-W, SD-WAH, SD-WAH + 0.05% DMSO, SD-WAH + 25 or 50 uM fluconazole + 0.05% DMSO
[2] = target: T1, Yor1 (PCA strains, mDHFR fragment …); experiment: split reporter; DHFR protein-fragment complementation assay (PCA) in diploid yeast; mDHFR-F[1,2] and mDHFR-F[3] fusions; spotted on solid YPD +Hyg +Nat with 2% DMSO, 2% DMSO + 200 ug/mL methotrexate, or 2% DMSO + 200 ug/mL methotrexate + 46.8 uM fluconazole; 72 hours at 30°C; conditions: remark: other sources report otherwise

| binding [1] | binding [2] | Molecule |
| --- | --- | --- |
| binds | – | Pdr5 (MYTH bait and prey constructs) (from UniProt P33302 1-1511) |
| – | binds | Yor1 (PCA strains, mDHFR fragment fusions), P53049 1-1477 (protein) MTITVGDAVSETELENKSQNVVLSPKASASSDISTDVDKDTSSSWDDKSLLPTGEYIVDRNKPQTYLNSDDIEKVTESDIFPQKRLFSFLHSKKIPEVPQTDDERKIYPLFHTNIISNMFFWWVLPILRVGYKRTIQPNDLFKMDPRMSIETLYDDFEKNMIYYFEKTRKKYRKRHPEATEEEVMENAKLPKHTVLRALLFTFKKQYFMSIVFAILANCTSGFNPMITKRLIEFVEEKAIFHSMHVNKGIGYAIGACLMMFVNGLTFNHFFHTSQLTGVQAKSILTKAAMKKMFNASNYARHCFPNGKVTSFVTTDLARIEFALSFQPFLAGFPAILAICIVLLIVNLGPIALVGIGIFFGGFFISLFAFKLILGFRIAANIFTDARVTMMREVLNNIKMIKYYTWEDAYEKNIQDIRTKEISKVRKMQLSRNFLIAMAMSLPSIASLVTFLAMYKVNKGGRQPGNIFASLSLFQVLSLQMFFLPIAIGTGIDMIIGLGRLQSLLEAPEDDPNQMIEMKPSPGFDPKLALKMTHCSFEWEDYELNDAIEEAKGEAKDEGKKNKKKRKDTWGKPSASTNKAKRLDNMLKDRDGPEDLEKTSFRGFKDLNFDIKKGEFIMITGPIGTGKSSLLNAMAGSMRKTDGKVEVNGDLLMCGYPWIQNASVRDNIIFGSPFNKEKYDEVVRVCSLKADLDILPAGDMTEIGERGITLSGGQKARINLARSVYKKKDIYLFDDVLSAVDSRVGKHIMDECLTGMLANKTRILATHQLSLIERASRVIVLGTDGQVDIGTVDELKARNQTLINLLQFSSQNSEKEDEEQEAVVAGELGQLKYESEVKELTELKKKATEMSQTANSGKIVADGHTSSKEERAVNSISLKIYREYIKAAVGKWGFIALPLYAILVVGTTFCSLFSSVWLSYWTENKFKNRPPSFYMGLYSFFVFAAFIFMNGQFTILCAMGIMASKWLNLRAVKRILHTPMSYIDTTPLGRILNRFTKDTDSLDNELTESLRLMTSQFANIVGVCVMCIVYLPWFAIAIPFLLVIFVLIADHYQSSGREIKRLEAVQRSFVYNNLNEVLGGMDTIKAYRSQERFLAKSDFLINKMNEAGYLVVVLQRWVGIFLDMVAIAFALIITLLCVTRAFPISAASVGVLLTYVLQLPGLLNTILRAMTQTENDMNSAERLVTYATELPLEASYRKPEMTPPESWPSMGEIIFENVDFAYRPGLPIVLKNLNLNIKSGEKIGICGRTGAGKSTIMSALYRLNELTAGKILIDNVDISQLGLFDLRRKLAIIPQDPVLFRGTIRKNLDPFNERTDDELWDALVRGGAIAKDDLPEVKLQKPDENGTHGKMHKFHLDQAVEEEGSNFSLGERQLLALTRALVRQSKILILDEATSSVDYETDGKIQTRIVEEFGDCTILCIAHRLKTIVNYDRILVLEKGEVAEFDTPWTLFSQEDSIFRSMCSRSGIVENDFENRS |
